Test results published in paper PMC2366074.
Results are given in words; binding and its absence hold for the method and conditions named. Binding seen in cells or lysates may run through a third protein. Some results given as binding are weak or reduced against the parent protein; the word gives no strength. Where a sequence is shown, tags or fusion partners need not be part of it.

Chains of the proteins cited; added tags and fusions are not shown.
UniProt P51532: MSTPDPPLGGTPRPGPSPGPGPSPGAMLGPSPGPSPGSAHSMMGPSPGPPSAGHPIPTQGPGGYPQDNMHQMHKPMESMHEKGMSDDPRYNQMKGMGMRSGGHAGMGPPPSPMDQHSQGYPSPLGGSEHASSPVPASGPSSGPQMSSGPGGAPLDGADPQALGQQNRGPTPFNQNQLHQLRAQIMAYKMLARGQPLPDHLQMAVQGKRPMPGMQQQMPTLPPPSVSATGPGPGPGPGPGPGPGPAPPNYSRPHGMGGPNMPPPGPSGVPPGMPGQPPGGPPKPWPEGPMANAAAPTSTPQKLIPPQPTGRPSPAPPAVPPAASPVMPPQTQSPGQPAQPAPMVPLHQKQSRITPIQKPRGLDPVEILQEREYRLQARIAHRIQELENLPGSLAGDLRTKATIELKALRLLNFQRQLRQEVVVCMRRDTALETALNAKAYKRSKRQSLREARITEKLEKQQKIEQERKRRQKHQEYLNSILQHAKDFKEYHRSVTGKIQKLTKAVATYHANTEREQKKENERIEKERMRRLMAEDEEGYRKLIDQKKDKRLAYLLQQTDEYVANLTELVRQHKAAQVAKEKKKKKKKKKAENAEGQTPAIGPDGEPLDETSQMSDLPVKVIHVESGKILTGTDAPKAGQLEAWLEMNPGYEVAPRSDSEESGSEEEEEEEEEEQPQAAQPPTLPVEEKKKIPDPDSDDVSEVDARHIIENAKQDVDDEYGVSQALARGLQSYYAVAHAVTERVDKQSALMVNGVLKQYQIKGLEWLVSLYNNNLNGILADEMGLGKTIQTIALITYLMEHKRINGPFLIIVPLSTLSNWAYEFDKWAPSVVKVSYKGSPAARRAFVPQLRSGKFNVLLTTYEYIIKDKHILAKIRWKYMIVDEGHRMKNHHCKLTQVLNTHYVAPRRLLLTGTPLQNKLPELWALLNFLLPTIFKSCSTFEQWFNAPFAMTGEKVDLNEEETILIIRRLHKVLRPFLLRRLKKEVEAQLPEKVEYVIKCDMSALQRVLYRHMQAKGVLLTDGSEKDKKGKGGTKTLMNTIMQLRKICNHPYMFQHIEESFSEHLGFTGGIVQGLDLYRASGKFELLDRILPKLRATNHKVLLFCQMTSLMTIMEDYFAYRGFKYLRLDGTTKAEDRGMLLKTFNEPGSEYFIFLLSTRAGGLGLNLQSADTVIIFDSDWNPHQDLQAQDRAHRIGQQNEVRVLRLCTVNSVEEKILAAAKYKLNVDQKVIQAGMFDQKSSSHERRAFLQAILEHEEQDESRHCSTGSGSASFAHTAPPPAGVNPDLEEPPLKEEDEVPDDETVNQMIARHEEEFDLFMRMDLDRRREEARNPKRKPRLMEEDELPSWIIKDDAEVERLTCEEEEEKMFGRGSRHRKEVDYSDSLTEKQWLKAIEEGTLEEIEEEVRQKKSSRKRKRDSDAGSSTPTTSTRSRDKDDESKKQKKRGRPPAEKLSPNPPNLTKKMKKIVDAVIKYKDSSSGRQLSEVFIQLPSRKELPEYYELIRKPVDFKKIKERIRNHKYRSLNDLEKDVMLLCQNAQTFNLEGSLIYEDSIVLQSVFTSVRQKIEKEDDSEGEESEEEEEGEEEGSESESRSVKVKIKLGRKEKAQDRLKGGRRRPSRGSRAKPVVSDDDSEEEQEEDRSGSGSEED

Molecular target: T1, Recombinant green fluorescent protein (GFP)-ADNP (UniProt Q9H2P0)
T1 sequence: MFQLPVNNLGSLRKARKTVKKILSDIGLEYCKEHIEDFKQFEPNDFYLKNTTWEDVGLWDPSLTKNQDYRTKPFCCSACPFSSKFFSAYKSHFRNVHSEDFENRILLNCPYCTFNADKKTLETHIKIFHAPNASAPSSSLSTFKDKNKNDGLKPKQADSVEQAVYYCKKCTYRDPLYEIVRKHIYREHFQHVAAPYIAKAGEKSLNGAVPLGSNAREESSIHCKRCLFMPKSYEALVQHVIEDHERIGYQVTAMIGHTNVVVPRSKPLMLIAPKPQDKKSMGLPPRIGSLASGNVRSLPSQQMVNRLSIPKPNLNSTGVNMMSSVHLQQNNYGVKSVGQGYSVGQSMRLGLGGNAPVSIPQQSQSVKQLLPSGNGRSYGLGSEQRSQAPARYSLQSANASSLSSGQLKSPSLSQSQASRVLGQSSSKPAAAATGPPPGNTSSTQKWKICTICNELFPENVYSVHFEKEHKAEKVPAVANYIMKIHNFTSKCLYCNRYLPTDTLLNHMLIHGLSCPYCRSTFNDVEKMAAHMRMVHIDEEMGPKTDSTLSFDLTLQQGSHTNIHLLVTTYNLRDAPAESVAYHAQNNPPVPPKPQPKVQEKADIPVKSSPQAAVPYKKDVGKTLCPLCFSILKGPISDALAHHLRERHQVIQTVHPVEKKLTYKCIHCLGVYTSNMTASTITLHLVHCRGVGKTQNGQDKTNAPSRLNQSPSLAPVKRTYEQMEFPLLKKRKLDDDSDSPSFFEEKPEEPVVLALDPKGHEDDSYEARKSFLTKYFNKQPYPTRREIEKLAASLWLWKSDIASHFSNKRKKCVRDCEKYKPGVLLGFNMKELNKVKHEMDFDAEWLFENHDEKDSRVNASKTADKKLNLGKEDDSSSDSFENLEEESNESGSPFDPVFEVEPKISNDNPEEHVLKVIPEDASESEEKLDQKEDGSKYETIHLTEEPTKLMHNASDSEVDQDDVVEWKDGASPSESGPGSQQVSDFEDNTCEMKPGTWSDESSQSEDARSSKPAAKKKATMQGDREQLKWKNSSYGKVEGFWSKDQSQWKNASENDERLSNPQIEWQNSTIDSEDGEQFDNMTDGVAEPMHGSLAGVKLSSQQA
Experiment: co-IP; HEK293 cells with GFP-ADNP; verification utilizing BRG1 antibodies

BRG1 (from UniProt P51532 1-1647)
binding: binds
